Like-named read-outs stand apart in the source and are kept apart here.
Columns and labels:
[1] = system: oxaliplatin-induced neuropathy
[2] = system: oxaliplatin-induced neuropathy; settings: group O-D
[3] = system: oxaliplatin-induced neuropathy; settings: 5 mg/kg 30 minutes before the test, FIG. 5
[4] = single 5 mg/kg oral dose on day 31, group O-D
[5] = single 5 mg/kg oral dose on day 31

Structure (SMILES): COc1cc2c(cc1OC)C(=O)C(CC1CCN(Cc3ccccc3)CC1)C2 (racemic) [donepezil]
- pain threshold, mechanical stimulation, vs group O ([1]; preventive: 5 mg/kg orally twice per day, day 14 to day 28, with chronic oxaliplatin, group O-D, FIG. 3): significantly higher pain threshold than animals treated using oxaliplatin alone
- time after administration from which paw withdrawal threshold is improved [1, 4]: 30 min
- time after administration up to which improvement of paw withdrawal threshold lasts [1, 4]: up to 60 min.
- paw withdrawal threshold (static mechanical allodynia) ([1]; single 5 mg/kg oral dose on day 31 after chronic oxaliplatin, group O-D vs group O, FIG. 1): significant improvement in the paw withdrawal threshold
- pain threshold, cold stimulation, vs group O ([2]; preventive: 5 mg/kg orally twice per day, day 14 to day 28, with chronic oxaliplatin, FIG. 4): significantly higher pain threshold than animals treated using oxaliplatin alone
- time after administration from which cold allodynia is decreased [2, 5]: 30 min
- time after administration up to which cold allodynia is decreased [2, 5]: up to 120 minutes
- tolerance for cold / cold allodynia (tail withdrawal) ([2]; single 5 mg/kg oral dose on day 31 after chronic oxaliplatin, FIG. 2): increase their tolerance for cold
- anxiety level (social interaction time) ([3]; day 31, oxaliplatin-treated rats (group O-D)): anxiety level equivalent to that of the Sham group and significantly lower than that of group O
- anxiety level (social interaction time) ([3]; day 31, rats not treated with oxaliplatin (group D)): anxiety level similar to those of the Sham group, the difference not being significant

— patent US20170128428A1 (priority 2014, published 2017)
